Some of these results come from one statement about several compounds together.
Tests used:
male Sprague-Dawley rats = experiment: Anesthetic effects in rats, bolus IV (LORR model of general anesthesia); assay type: in vivo, rat; settings: dose of at least 3 mg/kg
Description: Also measured was minimum dose to achieve LORR and maximum tolerated dose (MTD).
The ranges of doses studied were 2, 3, 4, 7, 14 and 21 mg/kg for Compound 1 and 3.5, 4.0, 7.0 and 14.0 mg/kg for […].

[1] = tested on: commercial farm-bred swine; settings: pig, in vivo, iv
Description: Experiments were performed on commercial farm-bred swine of either sex (mean weight 33.6 kg). Anesthesia was induced with isoflurane. Intravascular access was obtained from an ear vein. Each pig was intubated and mechanically ventilated. Tissue oxygenation was monitored using continuous pulse oximetry placed on the tongue. Ventilation was monitored using an inspired/expired gas analyzer that measured oxygen, carbon dioxide, and potent inhalation agent concentrations. Ventilator settings were adjusted as needed to maintain steady state.
ECG was monitored throughout the study. Arterial blood pressure was monitored through the cannulated left femoral artery. MAP, systolic and diastolic arterial pressures and heart rate were collected every 5 seconds. An internal jugular vein was cannulated with a pulmonary artery catheter for thermodilution estimates of cardiac output and blood temperature. Body temperature was maintained at 37° C.

Beagle dogs = settings: dog, in vivo

CC[C@@H](C)c1cccc(C(C)C)c1O [Compound 1, (R)-(−)-2-sec-butyl-6-isopropylphenol]
Onset of LORR (male Sprague-Dawley rats): less than 15 sec | time for effect on EEG to return to baseline [1]: ≤ 60 min | time to induction of anesthesia (Beagle dogs): ≤ 1 min

Source: US8350097B2, “Therapeutic compounds” (priority 2007, dated 2013)
